Source: patent publication US11111222B2, “Hydroxyeicosatrienoic acid compounds and their use as therapeutic agents” (THE REGENTS OF THE UNIVERSITY OF MICHIGAN, priority 2016, dated 2021)

Test system: 12-LOX and COX-1 metabolites
Experiment: LC/MS quantification of oxylipins released from washed human platelets
Type: cell-based
Details: DGLA 10 μM, 10 min, PAR4-AP 200 μM, vs DMSO

`CCCCC/C=C\C/C=C\C/C=C\CCCCCCC(=O)O` [DGLA, Dihomo-γ-linolenic acid] was tested, and the “amount of AA-dependent metabolites from 12-LOX (12-HETE) or COX-1 (TxB2 or PGE2)” value was “unaltered” and the “amount of DGLA-dependent COX-1 and 12-LOX oxylipins” value was “significantly potentiated”.
